Data as given in PubChem BioAssay AID2685 (National Center for Advancing Translational Sciences (NCATS), 2010).
The other results are listed elsewhere or left out. The main result of the screen is listed elsewhere. These columns were measured beside it and carry no call. Compounds called inactive in the main read-out are mostly missing here. The note in brackets gives the kind of curve behind each potency; many fits are weak.

Test: qHTS Assay for Lipid Storage Modulators in Drosophila S3 Cells;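 as to cell number change: cells counted by Cell Tracker Red CMTPX staining in the red channel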
Conditions: BODIPY lipid droplet fluorescence, 18-24 h; for cell number change: measured here: cell count max response, cells fed with added oleic acid
Method in brief: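 Laser-scanning cytometry quantifies lipid droplet accumulation (500–530 nm total intensity; droplet/cell object ratio) in oleic acid-fed (400 uM added) Drosophila S3 cells treated with a concentration series. 20 uM Triacsin C defined 100% inhibition.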

[1] = measured here: lipid fluorescence (Fed channel) AC50, cells fed with added oleic acid
[2] = measured here: cell number channel AC50, cells fed with added oleic acid

Row | Compound | cell number change [%] | AC50 [1] | AC50 [2]
1 | COc1ccc2c(c1OC)C(=O)N1C2SC(C)(C)[C@H]1C(=O)NC1CC1 (stereo partly specified) | 39.2 | 29.1 µM [rising, single point] | –
2 | C=CCNCCOc1ccccc1-c1ccccc1 | – | 0.0058 µM [falling, full curve, poor fit] | 4.11 µM [rising, single point]
3 | COc1ccc(C(=O)N2CCC(C(=O)Nc3ccc4c(c3)OCCO4)CC2)cc1 | 70.4 | 23.1 µM [rising, partial curve] | 29.1 µM [rising, single point]
4 | O=C(Nc1ccc(F)c(Cl)c1)Nc1ccc(Cl)cn1 | -29.8 | 29.1 µM [falling, single point] | –
5 | Cc1nc(C)c(-c2ccc(SCC(=O)Nc3cccc(Cl)c3)nn2)s1 | 13.9 | – | –
6 | COCc1cc(C(C)=O)ccc1OC | 3.6 | 1.03 µM [falling, partial curve] | –
7 | O=C(O)C1C2CCC(C2)C1C(=O)Nc1nc2ccccc2s1 (stereo unspecified) | 9.61 | – | –
8 | COc1cccc(-c2cc3nc4c(c(N5CCC6(CC5)OCCO6)n3n2)CCC4)c1 | -38.9 | 32.6 µM [falling, partial curve, poor fit] | 1.16 µM [falling, partial curve]
9 | COc1cccc(-c2nc(-c3ccccc3)no2)c1 | 1.79 | 1.3 µM [rising, full curve] | –
10 | CS(=O)(=O)N(CC(=O)Nc1ccccc1-c1ccccc1)c1ccc(F)cc1 | 12.9 | 0.206 µM [rising, full curve, poor fit] | –
11 | O=[N+]([O-])c1ccc(C2CN=C(Nc3ccccc3)S2)cc1 (stereo unspecified) | 4.47 | 5.17 µM [rising, partial curve, poor fit] | –
12 | COc1cccc(NC(=O)CN2C(=O)NC(CCc3ccccc3)C2=O)c1 (stereo unspecified) | 0.402 | 29.1 µM [rising, single point] | –
13 | Cn1c2ccccc2c(=O)c2ccc(C#Cc3ccccn3)cc21 | – | 18.4 µM [falling, partial curve] | –
14 | COc1ccc2cc(C)c3nnc(SCC(=O)Nc4nc(-c5ccccc5)cs4)n3c2c1 | -21.9 | 0.461 µM [falling, full curve] | –
15 | CCNC(=O)Cn1cc(C(F)(F)F)cc(Cl)c1=O | -31.9 | 18.4 µM [falling, partial curve, poor fit] | 1.16 µM [falling, full curve, poor fit]
16 | Fc1cccc(F)c1-n1c(CN2CCOCC2)csc1=S | 24.3 | 1.84 µM [rising, single point] | –
17 | CC(C)Sc1nc(O)c(Cc2ccccc2)c(=O)[nH]1 | -19.9 | – | 0.00411 µM [falling, full curve, poor fit]
18 | O=C(CCCSc1nc2ccccc2s1)NCc1ccco1 | – | 10.3 µM [falling, partial curve] | –
19 | CCOc1ccc(C2/C(=C(/O)c3ccc(Cl)cc3)C(=O)C(=O)N2CCCN(C)C)cc1OC (stereo unspecified) | 4.1 | 6.51 µM [rising, single point] | –

Copied from the list:
cell number change [%], `CCOc1ccc(C2/C(=C(/O)c3ccc(Cl)cc3)C(=O)C(=O)N2CCCN(C)C)cc1OC` (stereo unspecified) reads 4.1
AC50 [2], `COc1ccc(C(=O)N2CCC(C(=O)Nc3ccc4c(c3)OCCO4)CC2)cc1` reads 29.1 µM [rising, single point]

Next records follow.

Row | Compound | cell number change [%] | AC50 [1] | AC50 [2]
20 | COc1ccccc1N1CCN(c2ccc([N+](=O)[O-])cc2Cl)CC1 | -43.9 | 0.58 µM [falling, full curve] | 2.31 µM [falling, full curve]
21 | CCCCN(C(=O)c1[nH]c(C)c(C(C)=O)c1C)c1c(N)n(CCCC)c(=O)[nH]c1=O | -42.8 | 5.8 µM [falling, partial curve] | 2.06 µM [falling, full curve]
22 | O=C(O)COc1ccc(-c2nccc(-c3cccs3)n2)cc1 | 63 | – | –
23 | CCOC(=O)C1CCN(S(=O)(=O)c2ccc3c(c2)CC(C)N3C(=O)C2CCC2)CC1 (stereo unspecified) | 12.6 | – | –
24 | COc1ccc(NS(=O)(=O)c2ccc(NC(=S)NCC3CCCO3)cc2)cc1 (stereo unspecified) | 13.6 | 0.731 µM [falling, full curve] | –
25 | O=C(CCN1C(=O)c2ccccc2C1=O)NC(=S)Nc1ccccc1Cl | 11.5 | 18.4 µM [rising, single point] | –
26 | CC(C)CC(=O)C1=C(O)C(=O)N(Cc2ccccc2)C1c1ccccc1 (stereo unspecified) | 10.6 | 1.3 µM [rising, full curve] | –
27 | COC(=O)c1ccc2c(=O)n(CCCCCC(=O)N3CCN(c4ccccc4)CC3)c(=O)[nH]c2c1 | 66.4 | 0.0651 µM [falling, full curve, poor fit] | 14.6 µM [rising, single point]
28 | C/C(=N\NC(=O)c1cc2ccccc2cc1O)c1ccc(C)o1 | -36.1 | – | 29.1 µM [falling, single point]
29 | CC(=O)N1C(C)(C)CC(=NOC(=O)c2ccccc2)CC1(C)C | -48.2 | 11.6 µM [falling, partial curve] | 32.6 µM [falling, single point]
30 | CCC(C(=O)NC1C(=O)N2C(C(=O)O)=C(CSc3nnc(C)s3)CSC12)c1ccccc1 (stereo unspecified) | 8.14 | 29.1 µM [rising, single point] | –
31 | O=C(OC(C(=O)NCc1ccc(F)cc1)c1ccccc1)c1ccco1 (stereo unspecified) | 19.2 | – | –
32 | COCCN(C(=O)COC(=O)Cc1ccc(Cl)cc1Cl)c1c(N)n(Cc2ccccc2)c(=O)[nH]c1=O | -10.1 | 29.1 µM [falling, single point] | –
33 | Cc1ccc(OCCCC(=O)Nc2nccs2)cc1 | -30.8 | – | –
34 | O=C(C[n+]1ccc(/C=N/O)cc1)N1CCCCC1 | -33.1 | 29.1 µM [falling, single point] | 32.6 µM [falling, single point]
35 | O=C(CCN1C(=O)COc2ccccc21)NCCCN1CCc2ccccc2C1 | -17.9 | 0.651 µM [falling, single point] | 0.651 µM [falling, full curve, poor fit]
36 | O=C(Nc1ccsn1)c1ccc(Cl)cc1Cl | 13.6 | 4.61 µM [rising, partial curve, poor fit] | –
37 | CC(=O)c1cccc(CN2CCC(C(=O)Nc3ccc(Oc4cccnc4)cc3)CC2)c1 | 50.1 | 0.58 µM [rising, full curve, poor fit] | 23.1 µM [rising, single point]
